Out of some 53,000 sequences screened, about 3,700 (7%) were called active.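 Rule for the calls: active = gene knockdowns whose robust z-score for IL-1 alpha signal is at least 2 or at most -2, so actives lie on both sides; inactive = the rest.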 Some of the results follow.

The experiment can be described thus: Components of the Cytosolic LPS Sensing Pathway: Gene Identification via Genome-wide siRNA Screen.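 Note: robust z of the log signal after scaling to non-targeting control siRNA wells of the plate.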 The following applies: RAW264.7 macrophages, IL-1a HTRF, actives lie on both sides, screened at 100 nM (by protocol), cells primed 5 h with Pam3CSK4 first. The method, boiled down: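 Mouse macrophage line RAW264.7 is transfected with siRNA (100 nM final), grown 48h, primed with TLR ligand Pam3CSK4 5 h and given intracellular LipidA 24 h. IL-1a in supernatant is read by HTRF and viability by luminescence.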
For GCCAGAAUGGAGUUACACCTT against Arl4d, the z-score was inactive: -0.753.
In the case of GGCCUUUUUUCUAUAUCUATT against Galnt3, the z-score is inactive: -0.637.
Take GGCAUUGAAUUAAAGAUACTT against Myct1: the z-score was inactive: -1.06.
For GGAGCCUUUCUAGCUACCUTT against Dlk2, the z-score is inactive: 0.00631.
In the case of GGUCGAGUGCAAGUUGAAGTT against Taf13, the z-score is inactive: 1.85.
In the case of GGUGCUGUCAUUUGAAUUCTT against Atp13a1, the z-score is inactive: 0.266.
For GGUCAAGUUCACCAAGAUATT against Aldh1a3, the z-score is inactive: -1.16.
As for GGAUGAAAGAGCUAUUCUUTT against Cnot8, the z-score is inactive: -0.00551.
Take GGCAAACUCAUCCAUGUGCTT against Fabp3: the z-score is inactive: -1.53.
The figure for GGAUCCAGAUACUCCCAAGTT against Camp is inactive: -1.08; for GGGCAAGCCGGUUUCAUUUTT against Col16a1 it is inactive: 1.05.
The figure for GGCCUUGGGAAGGAAAGAGTT against Mospd1 is inactive: 0.222.
On to GGUGGAGAAAUCUGCUAAUTT against Lta4h, for which the z-score was inactive: 1.99.
Consider GGAGAAUGACACCAGGUCUTT against Arc, for which the z-score is inactive: -0.124.
For GGUCAGAUGUUCUGGAAAATT against Ctsj, the z-score is inactive: 1.12.
For GGUGAAGAGCAUCAUAACCTT against Fabp4 the value was inactive: -1.75; for GCCUUUUCAUUGCACCUCCTT against Cdc42se2, inactive: 0.384; for GCCAAUCUGAAAGGAUAUUTT against Tpst2, inactive: 0.96.
As for GGACAUGAUGAGUGACCUGTT against Elmo1, the z-score was inactive: -0.135.
For CCUCCUACAUGUUCACAUUTT against Olfr1367, the z-score is inactive: -0.626.
In the case of GCAUGUAGCCCUAAUUUUGTT against Dnajc14, the z-score is inactive: -0.583.
Turning to GGGCCUAAAAGGGUUAAGGTT against Prr14l, the z-score was inactive: 0.827.
Turning to GGUGUCUCUCUAUGAUUUATT against Otoa, the z-score was inactive: 1.76.
Take CCCGAGAAUGACUAUGAAGTT against Grid2ip: the z-score was inactive: -0.309.
Regarding GGUAUAAAAGGUUGCCAAATT against Efnb2, the z-score was inactive: -1.71.
The figure for GGUUUAGCAUCGUCCUAUATT against Crmp1 is inactive: -0.495.
For the sequence CCAUGGAAACUGAAUUCUGTT against Ears2, the z-score was inactive: -0.398.
AAGACCUUCCACAUGUUAATT against Fam169b: the z-score is inactive: 0.501.
As to GCUUCAGGCAAGGUUUAAATT against Ppp1r2, the z-score is inactive: 0.571.
With GGAAAAAGAUCCAGAUUUGTT against Adprh, the z-score is inactive: 1.21.
Take GCCGAUCACACAGUGGAAATT against Spin2c: the z-score was inactive: 0.024.
As to GGGUAAUACUCUUUGGUGCTT against Olfr594, the z-score was inactive: 0.34.
For the sequence CCCUGUAUAUUGCAUUUCCTT against Pcdhb21, the z-score is inactive: 0.198.
The figure for GGUGGAAGAAGAAAUUGUCTT against Tpd52l2 is active: -2; for GCCUUCUUAACUUCAUCACTT against Taar5 it is inactive: 1.16; for CCUGUAUUAAACAGGGUUCTT against Zfp60 it is inactive: -0.883.
The figure for UGCUGGUGCCUGAUGACCATT against Defa1 is inactive: -0.154; for CGACUUGACAUCGUCAGUATT against Bloc1s4 it is inactive: 1.03.
As for CCUUGUGACUCUAAGAAUATT against Bcl2l14, the z-score is inactive: -0.0665.
Take CCUGAAGCGGAAGUGCAAATT against Wnt10b: the z-score is inactive: 0.784.
As for GAGUGUGAGGACUCAGACUTT against Gpbp1l1, the z-score is inactive: -0.896.
For CCUCUUACCGCUUUCAAUATT against Arf1, the z-score was inactive: -0.688.
In the case of GGAUGAGGAUGUGACCAAGTT against Prokr2, the z-score is inactive: -0.241.
Consider GGAGCAAAGCCUGUGAACUTT against Dffa, for which the z-score is inactive: 0.905.
For the sequence GGUGGCUAUUGAUGAAAACTT against Zfyve19, the z-score was inactive: -0.813.
For GGUAUUGUGUUUCCCAAACTT against Acsf2, the z-score was inactive: 0.28.
Take GCCUCCUAUAUAAACAUUGTT against Olfr1321: the z-score is inactive: 1.02.
In the case of GCUUGAUGACUCUAAACCUTT against Runx2, the z-score was inactive: 1.29.
The figure for AGAUCGUGGACCAUGUGAATT against Nxph4 is inactive: -0.842; for GGCCCGAAACAAGAAAUCCTT against Ikbke it is inactive: 0.957.
Take GCACCAUGUAUACAAAAGATT against Pcdhb3: the z-score was inactive: 0.0679.
As for GGUUUUGUAGGCAUGCUUGTT against Slc10a3, the z-score is inactive: -1.38.
GGCCACAUGUGUGUUCUGATT against Glt1d1: the z-score is inactive: -1.77.
As to CCCUAUAAUUGCCUUAAUATT against Akip1, the z-score was inactive: 0.765.
As to GCUAGAGGAACUAGAACCATT against Mrpl54, the z-score was inactive: 1.32.
Take CGAAAAUAGUGAGGAUUAUTT against Hrnr: the z-score is inactive: -0.719.
For CCUCACCCUUUCCAAAAAATT against Polr2f the value was inactive: -1.03; for GGAUAGUAUACUAGAAGAATT against Mms22l, inactive: -1.4; for GGGCACAAGUACCAUCUUATT against Lxn, inactive: -0.113.
For GGGUUCAAUGCAGUCAUGATT against Slc25a20, the z-score was inactive: -1.64.
Regarding GCGAUCAAAAAAGUUGCCUTT against Arhgap44, the z-score was inactive: -0.387.
For GCUCUCAUGACUCCUUUUATT against Olfr99, the z-score was inactive: -1.41.
For CCUCAUCGACAUAAUGAUUTT against Samhd1 the value was inactive: -0.0182; for CGUCUCCUGAACUUAGAAUTT against Rab5if, inactive: -0.322.
In the case of GCUACAAUCAAAAUUAUGCTT against Defb21, the z-score is inactive: -1.14.
Consider GGAAGACUCGGUUCAUCAUTT against Pnliprp1, for which the z-score is inactive: 0.884.
For GCUUUGUUAGUGUUAGUCUTT against Lamc1, the z-score was inactive: -0.322.
CCAAGCCUAUUCUUAACUUTT against Cxcl3: the z-score was inactive: 0.445.
With CGUGGUAGUUAAUUGUUCATT against Map3k1, the z-score was inactive: 1.87.
GGCCAAUGACCAGACCUUGTT against Hrh1: the z-score is inactive: 0.309.
On to CCGUUUUCGCUUUGAGAAATT against Smarcad1, for which the z-score is active: 4.47.
In the case of GGUGGAUUAAGUCUCAAAATT against Pcdhb22, the z-score is inactive: 0.592.
With GGUAAAGACACAGAGCUGCTT against Cntd1, the z-score was inactive: 0.202.
The figure for GCACAAGUCCCUACCACUUTT against Birc3 is inactive: 0.12.
For GCGUAGAGACAAAGUAGAATT against Gpr141 the value was inactive: 1.8.
As for GGAAGUUAUCAACAUAGUUTT against Ern1, the z-score is inactive: 0.918.
Turning to GCAAUGUUAUUUUCACCAGTT against Slc3a1, the z-score is inactive: 0.61.
In the case of GCUAUUGGCGAGAAUUAAATT against Smarca1, the z-score was inactive: -0.0414.
CGGGUCUAUCGAUUUCUUCTT against Fcna: the z-score was inactive: 0.0939.
Regarding GGAGCGAUUUCAUUUGGAUTT against Wwc2, the z-score is inactive: 0.13.
The figure for GGGCAUGUAUAUAAUGUUCTT against Kifc3 is inactive: -0.325.
For GGCCAGCUGAAAGAGGUUCTT against Ndufaf5, the z-score was inactive: 0.0496.
For CCUUAUGGAUUUAGCAUCATT against Lamb3, the z-score is inactive: 0.917.
The figure for CGGAAUAUAGAAUGAAACCTT against Cd200r3 is inactive: 0.731; for GGUGUCAUUCAACUUGCAUTT against Rnase10 it is active: -2.55.
For the sequence GCUUUUAUUGGCCACCCUGTT against Dennd4b, the z-score is inactive: 0.0854.
Turning to GAGUCUUCUCUGCCUGUCUTT against Lce3c, the z-score is inactive: -0.106.
In the case of GGACAACGUAGCCUUCGUUTT against Ncln, the z-score is inactive: -0.562.
For CCCACAAUCUUUUUGUAAATT against Sost, the z-score was inactive: -0.75.
Turning to CCUUUUGAUGUUGUGACUUTT against Crebl2, the z-score was inactive: 0.116.
Take GGAGCUGAUAAGAAAACUATT against Gbp2: the z-score was inactive: 0.486.
GGUGAUUCAGAUAAAAGAGTT against Mbtps1: the z-score is inactive: 0.265.
For the sequence GGCCCUGUUGCUAUGUGUUTT against Map1s, the z-score was active: 2.06.
For GGCUCAAAGACUGAAUCCCTT against Recql4, the z-score is inactive: 0.309.
The figure for GGUCAUUUCAAGUGCUAAGTT against Adgra1 is active: 2.76.
Take GCUGUUUCAGGUAUCUGUCTT against Tcam1: the z-score is inactive: 0.00576.
As to GGUAUUAGCGGAUUGUUACTT against Spg7, the z-score is inactive: -0.378.
On to GGCCUUAGAUGGGAAAUUGTT against Pttg1, for which the z-score was inactive: -0.386.
The figure for GGAAGAAGUACCCAUGCAATT against Olfr65 is inactive: -0.491.
As to CUGUAUGAAGAACUGGAGCTT against Cracr2b, the z-score is inactive: 0.659.
For GCACCAAUCAAUGAGGAGATT against Was the value was inactive: -0.785; for GGCUGAUGAUACUUAAACATT against Vmn1r83, inactive: -1.26; for GGUUAGAGUGCCUUUCCUUTT against Ctxn1, inactive: -0.226.
On to GGCACACUCACUCCUUUGATT against Mis18bp1, for which the z-score is inactive: 0.145.
With GGGUUUCUGAGGUUUAAUUTT against Arhgef3, the z-score was inactive: 0.0908.
Consider CCAGAGCUUAUUGAGAUGCTT against Myh4, for which the z-score is inactive: -0.475.
Regarding CCUAUGAUUACUUGAACCCTT against Bak1, the z-score was inactive: 0.803.

The record behind these values is PubChem BioAssay AID1508600 (Functional Genomics Laboratory (NCATS/FGL), 2020).
